These are yes or no findings as the source states them, for the method shown. In cells and extracts the contact can be indirect. These calls come from enrichment with a bait or labelling near it, and not all partners need be listed.
Molecular target: full-length, N-terminally FLAG-tagged human SHIP164 (3xFLAG-SHIP164) (human) (UniProt A0JNW5)
Assay: affinity purification with mass spectrometry

The chains behind the UniProt entries cited, without tags or fusion partners.
UniProt A0JNW5: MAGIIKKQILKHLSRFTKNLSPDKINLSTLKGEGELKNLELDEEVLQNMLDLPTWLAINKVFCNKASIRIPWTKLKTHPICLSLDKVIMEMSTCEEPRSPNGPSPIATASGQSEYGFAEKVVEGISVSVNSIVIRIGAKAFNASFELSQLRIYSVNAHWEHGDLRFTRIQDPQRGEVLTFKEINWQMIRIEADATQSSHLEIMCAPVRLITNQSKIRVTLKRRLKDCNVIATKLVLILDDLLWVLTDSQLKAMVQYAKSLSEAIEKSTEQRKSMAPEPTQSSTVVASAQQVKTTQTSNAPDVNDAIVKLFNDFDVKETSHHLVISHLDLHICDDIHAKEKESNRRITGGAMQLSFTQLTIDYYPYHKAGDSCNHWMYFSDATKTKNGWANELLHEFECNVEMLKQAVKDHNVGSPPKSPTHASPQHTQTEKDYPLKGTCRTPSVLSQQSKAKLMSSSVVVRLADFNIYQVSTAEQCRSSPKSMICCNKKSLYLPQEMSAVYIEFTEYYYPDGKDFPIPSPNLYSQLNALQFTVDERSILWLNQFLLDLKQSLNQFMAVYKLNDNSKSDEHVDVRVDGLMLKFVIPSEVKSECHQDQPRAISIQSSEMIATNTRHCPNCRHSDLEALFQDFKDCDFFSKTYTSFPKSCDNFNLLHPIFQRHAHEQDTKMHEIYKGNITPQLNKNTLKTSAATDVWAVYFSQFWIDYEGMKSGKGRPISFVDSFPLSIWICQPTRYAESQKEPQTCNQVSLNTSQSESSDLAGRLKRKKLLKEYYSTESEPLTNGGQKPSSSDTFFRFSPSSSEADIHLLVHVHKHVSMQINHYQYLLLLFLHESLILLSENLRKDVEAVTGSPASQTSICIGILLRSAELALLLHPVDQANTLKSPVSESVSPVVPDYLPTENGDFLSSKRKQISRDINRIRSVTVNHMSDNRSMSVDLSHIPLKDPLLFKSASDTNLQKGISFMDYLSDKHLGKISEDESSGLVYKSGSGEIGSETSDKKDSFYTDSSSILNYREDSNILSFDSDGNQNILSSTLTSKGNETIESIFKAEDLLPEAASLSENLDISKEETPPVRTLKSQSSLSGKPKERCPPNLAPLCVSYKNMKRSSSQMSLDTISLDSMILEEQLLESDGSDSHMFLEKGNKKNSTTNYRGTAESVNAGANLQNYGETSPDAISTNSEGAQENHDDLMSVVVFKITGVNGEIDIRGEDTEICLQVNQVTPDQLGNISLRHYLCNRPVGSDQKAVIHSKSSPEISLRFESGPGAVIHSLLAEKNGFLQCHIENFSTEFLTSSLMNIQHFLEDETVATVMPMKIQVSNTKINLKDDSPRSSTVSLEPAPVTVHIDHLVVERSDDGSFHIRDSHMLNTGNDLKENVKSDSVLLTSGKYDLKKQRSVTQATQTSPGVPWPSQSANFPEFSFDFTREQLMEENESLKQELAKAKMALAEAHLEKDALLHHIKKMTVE
UniProt P63168: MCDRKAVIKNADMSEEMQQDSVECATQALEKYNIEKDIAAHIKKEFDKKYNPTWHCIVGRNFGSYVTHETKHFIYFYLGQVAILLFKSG

binding: binds
Substance: dynein light chain 1 (DYNLL1) (from UniProt P63168 1-89)
